No constants are given. Whether binding was seen depends on the method and setting. Some binding calls cover weakened binding; strength is not graded here.
Molecular target: 4-1BB on CD3-stimulated human T lymphocytes (PBMC) (human) (UniProt Q07011)
Experiment: flow cytometry on CD3-stimulated PBMC, ligand at 10 µg/ml revealed through anti-FLAG mAb

Protein sequences, listed by entry. Tags and fused reporters are not part of them. Residues count along the entry.
UniProt Q07011, residues 24-255: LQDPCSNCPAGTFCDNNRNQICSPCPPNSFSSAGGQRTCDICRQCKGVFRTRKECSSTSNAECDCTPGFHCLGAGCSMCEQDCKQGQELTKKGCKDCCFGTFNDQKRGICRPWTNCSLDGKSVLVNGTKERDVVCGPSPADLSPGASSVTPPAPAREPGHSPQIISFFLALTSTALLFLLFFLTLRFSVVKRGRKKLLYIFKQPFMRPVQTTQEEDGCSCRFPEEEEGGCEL
UniProt P41273, residues 93-254: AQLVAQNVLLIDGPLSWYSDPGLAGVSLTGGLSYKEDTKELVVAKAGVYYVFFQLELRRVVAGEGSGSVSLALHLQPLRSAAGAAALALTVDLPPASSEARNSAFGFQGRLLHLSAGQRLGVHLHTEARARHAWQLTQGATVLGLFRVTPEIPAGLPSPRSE

FLAG-4-1BBL (Alexis), FLAG peptide coupled to the TNF homology domain of human 4-1BBL through an undefined 11 aa linker (from UniProt P41273 93-254) (ligand)
binding: binds

Reference: patent publication EP1736482A1
